From the supplement of paper PMC12823440, “Inhibitors supercharge kinase turnover through native proteolytic circuits” (Nature, 2025)
Structures can show the parent of a compound that is named as a salt. Some of the results follow. The calls rarely recur for the same compound in another form.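 Kinases, fused to nanoluciferase, were expressed in K562 cells; luminescence was measured every 4 h from 2 to 18 h as percent of control (DMSO = 100%, positive control = 0%). A time point is decreased if signal falls significantly (2 sigma). Hits were called by the authors by a rule that is not shown; the count of time points alone does not decide it.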

Sequences of proteins named here, by UniProt entry; tags and fusion partners are left off.
UniProt O96017, whole entry: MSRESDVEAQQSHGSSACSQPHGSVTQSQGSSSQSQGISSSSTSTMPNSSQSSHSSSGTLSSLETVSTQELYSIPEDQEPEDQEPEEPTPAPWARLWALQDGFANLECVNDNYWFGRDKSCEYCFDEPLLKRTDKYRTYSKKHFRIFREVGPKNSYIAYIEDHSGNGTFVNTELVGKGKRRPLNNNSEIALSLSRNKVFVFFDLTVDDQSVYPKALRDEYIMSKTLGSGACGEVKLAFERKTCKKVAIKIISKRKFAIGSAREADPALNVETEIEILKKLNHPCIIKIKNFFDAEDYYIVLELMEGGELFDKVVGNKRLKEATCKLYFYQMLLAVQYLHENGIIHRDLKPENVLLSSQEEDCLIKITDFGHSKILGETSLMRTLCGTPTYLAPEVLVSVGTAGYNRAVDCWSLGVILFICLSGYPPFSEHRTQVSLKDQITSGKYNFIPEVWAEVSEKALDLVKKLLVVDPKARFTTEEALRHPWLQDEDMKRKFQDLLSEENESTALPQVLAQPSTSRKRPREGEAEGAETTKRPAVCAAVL
UniProt P07333, whole entry: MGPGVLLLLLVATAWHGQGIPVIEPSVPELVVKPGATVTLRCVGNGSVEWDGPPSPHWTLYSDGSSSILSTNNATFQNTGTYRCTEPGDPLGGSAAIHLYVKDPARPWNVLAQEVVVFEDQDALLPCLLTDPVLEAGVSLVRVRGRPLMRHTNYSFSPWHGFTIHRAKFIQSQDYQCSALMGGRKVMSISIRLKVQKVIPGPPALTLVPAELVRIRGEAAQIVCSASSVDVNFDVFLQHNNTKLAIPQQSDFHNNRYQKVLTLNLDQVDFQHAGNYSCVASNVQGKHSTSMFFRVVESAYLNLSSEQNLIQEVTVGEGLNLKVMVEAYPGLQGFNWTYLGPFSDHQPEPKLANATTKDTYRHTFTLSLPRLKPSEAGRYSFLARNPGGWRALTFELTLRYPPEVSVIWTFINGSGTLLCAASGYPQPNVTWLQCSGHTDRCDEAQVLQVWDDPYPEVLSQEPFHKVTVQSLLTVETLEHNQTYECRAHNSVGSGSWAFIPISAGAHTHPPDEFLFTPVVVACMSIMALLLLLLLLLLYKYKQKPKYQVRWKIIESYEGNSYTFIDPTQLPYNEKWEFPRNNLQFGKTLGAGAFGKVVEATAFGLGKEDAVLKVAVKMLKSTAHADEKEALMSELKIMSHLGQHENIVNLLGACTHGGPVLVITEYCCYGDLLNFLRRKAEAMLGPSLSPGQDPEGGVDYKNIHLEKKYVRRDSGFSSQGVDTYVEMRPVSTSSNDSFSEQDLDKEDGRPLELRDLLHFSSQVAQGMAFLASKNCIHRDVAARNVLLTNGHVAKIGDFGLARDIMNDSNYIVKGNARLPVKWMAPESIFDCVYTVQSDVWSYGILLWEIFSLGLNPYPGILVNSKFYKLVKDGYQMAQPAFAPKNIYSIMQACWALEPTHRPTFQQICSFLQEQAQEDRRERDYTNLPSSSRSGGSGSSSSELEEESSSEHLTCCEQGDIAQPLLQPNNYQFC

target: CHEK2 (UniProt O96017); assay: kinase-Nluc reporter destabilization hit call (1 = scored as downregulated) (binary); higher = compound decreases kinase abundance; settings: 10 µM; K562; 2-18 h

kinase-Nluc reporter destabilization hit call, inactive:
COc1cc2nccc(Oc3ccc(NC(=O)C4(C(=O)Nc5ccc(F)cc5)CC4)cc3)c2cc1OC [Cabozantinib (S-malate)] 0
CN(C)C(=N)NC(=N)N [Metformin (hydrochloride)] 0
COc1ccnc(C[S+]([O-])c2nc3cc(-n4cccc4)ccc3[nH]2)c1C (stereo unspecified) [Ilaprazole (sodium)] 0
C#Cc1cccc(Nc2ncnc3cc4c(cc23)OCCOCCOCCO4)c1 [Icotinib (Hydrochloride)] 0
CC(C)NC[C@@H](C(=O)N1CCN(c2ncnc3c2[C@H](C)C[C@H]3O)CC1)c1ccc(Cl)cc1 [Ipatasertib] 0
CC(=O)c1c(C)c2cnc(Nc3ccc(N4CCNCC4)cn3)nc2n(C2CCCC2)c1=O [Palbociclib (monohydrochloride)] 0
C#Cc1cccc(Nc2ncnc3cc(OCCOC)c(OCCOC)cc23)c1 [Erlotinib] 0
OCCn1cc(-c2cnc3nnn(Cc4ccc5ncccc5c4)c3n2)cn1 0
CCN(CC)CC(=O)Nc1c(C)cccc1C [Lidocaine] 0
CCS(=O)(=O)N1CCN(c2ccc(Nc3ncc(C(N)=O)c(NC4CC4)n3)cc2)CC1 [Cerdulatinib] 0
C#Cc1cccc(Nc2ncnc3cc(OCCOC)c(OCCOC)cc23)c1 [Erlotinib (Hydrochloride)] 0
O=C(c1ccc(F)c(F)c1Nc1ccc(I)cc1F)N1CC(O)([C@@H]2CCCCN2)C1 [Cobimetinib] 0
CC(C)(C)n1nc(-c2cccc3ccccc23)c2c(N)ncnc21 [1-Naphthyl PP1 (hydrochloride)] 0
CC(=O)c1c(C)c2cnc(Nc3ccc(N4CCNCC4)cn3)nc2n(C2CCCC2)c1=O [Palbociclib (isethionate)] 0

target: CSF1R (UniProt P07333); assay: as above; settings: 2 µM; K562; 2-18 h

kinase-Nluc reporter destabilization hit call, inactive:
CCc1nc(C(N)=O)c(Nc2ccc(N3CCC(N4CCN(C)CC4)CC3)c(OC)c2)nc1NC1CCOCC1 [Gilteritinib] 0
CCc1nc(C(N)=O)c(Nc2ccc(N3CCC(N4CCN(C)CC4)CC3)c(OC)c2)nc1NC1CCOCC1 [Gilteritinib hemifumarate] 0
Cc1[nH]c(/C=C2\C(=O)Nc3ccc(F)cc32)c(C)c1C(=O)NCCN1CCCC1 [Toceranib (phosphate)] 0
Cc1[nH]c(/C=C2\C(=O)Nc3ccc(F)cc32)c(C)c1C(=O)NCCN1CCCC1 [Toceranib] 0

same assay, conditions: 2.5 µM; K562; 2-18 h

kinase-Nluc reporter destabilization hit call, inactive:
C=CC(=O)Nc1cc(Nc2nccc(-c3cn(C)c4ccccc34)n2)c(OC)cc1N(C)CCN(C)C [Osimertinib mesylate] 0
c1cc(-c2cnn3cc(-c4ccc(OCCN5CCCCC5)cc4)cnc23)ccn1 [Dorsomorphin] 0
CN(C)C/C=C/C(=O)Nc1cc2c(Nc3ccc(F)c(Cl)c3)ncnc2cc1O[C@H]1CCOC1 [Afatinib (dimaleate)] 0
C=CC(=O)Nc1cc(Nc2nccc(-c3cn(C)c4ccccc34)n2)c(OC)cc1N(C)CCN(C)C [Osimertinib] 0
CN(C)C(=O)c1cc2cnc(Nc3ccc(N4CCNCC4)cn3)nc2n1C1CCCC1 [Ribociclib hydrochloride] 0
COc1ccc(S(=O)(=O)Nc2ccccc2CN(C)C/C=C/c2ccc(Cl)cc2)cc1 [KN-92 (hydrochloride)] 0
COc1ccc(S(=O)(=O)Nc2ccccc2CN(C)C/C=C/c2ccc(Cl)cc2)cc1 [KN-92 (phosphate)] 0

Fetched one by one from the list above, two records:
kinase-Nluc reporter destabilization hit call, inactive:
CN(C)C/C=C/C(=O)Nc1cc2c(Nc3ccc(F)c(Cl)c3)ncnc2cc1O[C@H]1CCOC1 [Afatinib (dimaleate)] 0
C=CC(=O)Nc1cc(Nc2nccc(-c3cn(C)c4ccccc34)n2)c(OC)cc1N(C)CCN(C)C [Osimertinib mesylate] 0

same assay, conditions: 10 µM; K562; 2-18 h

kinase-Nluc reporter destabilization hit call, inactive:
CCS(=O)(=O)N1CCN(c2ccc(Nc3ncc(C(N)=O)c(NC4CC4)n3)cc2)CC1 [Cerdulatinib (hydrochloride)] 0
C[C@@H](N)c1ccc(C(=O)Nc2ccnc3[nH]ccc23)cc1 0
COc1ncc(F)cc1CNc1ccc(Cc2c[nH]c3ncc(C)cc23)c(F)n1 0
CCS(=O)(=O)N1CC(CC#N)(n2cc(-c3ncnc4[nH]ccc34)cn2)C1 [Baricitinib (phosphate)] 0
COC(=O)[C@H](CC(C)C)NC(=O)c1ccc(NC[C@@H](N)CS)cc1-c1cccc2ccccc12 [GGTI298 (Trifluoroacetate)] 0
COCCOc1cc(F)c2c(Nc3ccc(NC(=O)Cn4cc(C(C)C)nn4)cc3)ncnc2c1 [AZD3229 Tosylate] 0
CC(C)(C)n1nc(-c2cccc3ccccc23)c2c(N)ncnc21 [1-Naphthyl PP1] 0
N#CCNC(=O)c1ccc(-c2ccnc(Nc3ccc(N4CCOCC4)cc3)n2)cc1 [Momelotinib sulfate] 0
Cn1ncc(Cl)c1-c1cc(C(=O)N[C@H](CN)Cc2cccc(F)c2)sc1Cl [Afuresertib] 0
CNC(=O)c1ccc(Nc2ncc(C(F)(F)F)c(NCc3nccnc3N(C)S(C)(=O)=O)n2)cc1 [Defactinib] 0
O=C(O)c1ccc2c(c1)nc(Nc1cccc(Cl)c1)c1ccncc12 [Silmitasertib] 0
O=C(Nc1cnn2ccc(N3CCC[C@@H]3c3cc(F)ccc3F)nc12)N1CC[C@H](O)C1 [Larotrectinib] 0
COc1cc2nccc(Oc3ccc(NC(=O)C4(C(=O)Nc5ccc(F)cc5)CC4)cc3)c2cc1OC [Cabozantinib (S-malate)] 0
CN(C)C(=N)NC(=N)N [Metformin (hydrochloride)] 0
COc1ccnc(C[S+]([O-])c2nc3cc(-n4cccc4)ccc3[nH]2)c1C (stereo unspecified) [Ilaprazole (sodium)] 0
C#Cc1cccc(Nc2ncnc3cc4c(cc23)OCCOCCOCCO4)c1 [Icotinib (Hydrochloride)] 0
CC(C)NC[C@@H](C(=O)N1CCN(c2ncnc3c2[C@H](C)C[C@H]3O)CC1)c1ccc(Cl)cc1 [Ipatasertib] 0
CC(=O)c1c(C)c2cnc(Nc3ccc(N4CCNCC4)cn3)nc2n(C2CCCC2)c1=O [Palbociclib (monohydrochloride)] 0
C#Cc1cccc(Nc2ncnc3cc(OCCOC)c(OCCOC)cc23)c1 [Erlotinib] 0
OCCn1cc(-c2cnc3nnn(Cc4ccc5ncccc5c4)c3n2)cn1 0
CCN(CC)CC(=O)Nc1c(C)cccc1C [Lidocaine] 0
CCS(=O)(=O)N1CCN(c2ccc(Nc3ncc(C(N)=O)c(NC4CC4)n3)cc2)CC1 [Cerdulatinib] 0
C#Cc1cccc(Nc2ncnc3cc(OCCOC)c(OCCOC)cc23)c1 [Erlotinib (Hydrochloride)] 0
O=C(c1ccc(F)c(F)c1Nc1ccc(I)cc1F)N1CC(O)([C@@H]2CCCCN2)C1 [Cobimetinib] 0
CC(C)(C)n1nc(-c2cccc3ccccc23)c2c(N)ncnc21 [1-Naphthyl PP1 (hydrochloride)] 0
CC(=O)c1c(C)c2cnc(Nc3ccc(N4CCNCC4)cn3)nc2n(C2CCCC2)c1=O [Palbociclib (isethionate)] 0
